In the supplement of paper PMC10849652:
This is one part of the list.

Chains of the proteins cited; added tags and fusions are not shown. Lines headed by an entry give the natural chain unless they say otherwise; changes in a name come on top.
UniProt P54922: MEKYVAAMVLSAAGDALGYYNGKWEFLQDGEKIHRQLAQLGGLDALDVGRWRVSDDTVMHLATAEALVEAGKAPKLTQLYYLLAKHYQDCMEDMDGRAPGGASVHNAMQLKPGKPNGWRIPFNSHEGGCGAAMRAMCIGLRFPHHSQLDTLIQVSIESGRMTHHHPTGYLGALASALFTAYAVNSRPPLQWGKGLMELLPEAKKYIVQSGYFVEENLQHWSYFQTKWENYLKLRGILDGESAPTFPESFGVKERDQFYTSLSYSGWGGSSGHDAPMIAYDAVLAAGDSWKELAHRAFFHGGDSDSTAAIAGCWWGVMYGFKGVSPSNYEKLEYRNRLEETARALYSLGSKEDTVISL
UniProt Q9NR19, whole entry, looked up: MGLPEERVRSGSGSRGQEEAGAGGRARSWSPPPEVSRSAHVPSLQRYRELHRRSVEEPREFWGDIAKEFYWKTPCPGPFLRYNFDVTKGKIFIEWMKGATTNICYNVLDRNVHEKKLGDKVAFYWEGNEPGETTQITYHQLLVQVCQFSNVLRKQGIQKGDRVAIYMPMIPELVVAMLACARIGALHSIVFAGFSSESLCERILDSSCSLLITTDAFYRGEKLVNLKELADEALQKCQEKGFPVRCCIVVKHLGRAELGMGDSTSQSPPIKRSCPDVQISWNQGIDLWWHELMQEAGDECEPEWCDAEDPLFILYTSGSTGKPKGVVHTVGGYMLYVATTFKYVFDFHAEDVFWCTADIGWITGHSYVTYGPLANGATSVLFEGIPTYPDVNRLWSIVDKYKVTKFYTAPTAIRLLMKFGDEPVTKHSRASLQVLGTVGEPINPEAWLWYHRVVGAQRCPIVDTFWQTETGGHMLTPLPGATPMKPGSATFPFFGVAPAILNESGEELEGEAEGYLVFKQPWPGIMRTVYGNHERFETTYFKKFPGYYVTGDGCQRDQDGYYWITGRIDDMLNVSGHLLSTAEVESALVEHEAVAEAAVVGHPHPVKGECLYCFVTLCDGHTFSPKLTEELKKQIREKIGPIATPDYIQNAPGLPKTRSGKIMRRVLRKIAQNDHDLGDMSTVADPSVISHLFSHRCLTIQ
UniProt O00468: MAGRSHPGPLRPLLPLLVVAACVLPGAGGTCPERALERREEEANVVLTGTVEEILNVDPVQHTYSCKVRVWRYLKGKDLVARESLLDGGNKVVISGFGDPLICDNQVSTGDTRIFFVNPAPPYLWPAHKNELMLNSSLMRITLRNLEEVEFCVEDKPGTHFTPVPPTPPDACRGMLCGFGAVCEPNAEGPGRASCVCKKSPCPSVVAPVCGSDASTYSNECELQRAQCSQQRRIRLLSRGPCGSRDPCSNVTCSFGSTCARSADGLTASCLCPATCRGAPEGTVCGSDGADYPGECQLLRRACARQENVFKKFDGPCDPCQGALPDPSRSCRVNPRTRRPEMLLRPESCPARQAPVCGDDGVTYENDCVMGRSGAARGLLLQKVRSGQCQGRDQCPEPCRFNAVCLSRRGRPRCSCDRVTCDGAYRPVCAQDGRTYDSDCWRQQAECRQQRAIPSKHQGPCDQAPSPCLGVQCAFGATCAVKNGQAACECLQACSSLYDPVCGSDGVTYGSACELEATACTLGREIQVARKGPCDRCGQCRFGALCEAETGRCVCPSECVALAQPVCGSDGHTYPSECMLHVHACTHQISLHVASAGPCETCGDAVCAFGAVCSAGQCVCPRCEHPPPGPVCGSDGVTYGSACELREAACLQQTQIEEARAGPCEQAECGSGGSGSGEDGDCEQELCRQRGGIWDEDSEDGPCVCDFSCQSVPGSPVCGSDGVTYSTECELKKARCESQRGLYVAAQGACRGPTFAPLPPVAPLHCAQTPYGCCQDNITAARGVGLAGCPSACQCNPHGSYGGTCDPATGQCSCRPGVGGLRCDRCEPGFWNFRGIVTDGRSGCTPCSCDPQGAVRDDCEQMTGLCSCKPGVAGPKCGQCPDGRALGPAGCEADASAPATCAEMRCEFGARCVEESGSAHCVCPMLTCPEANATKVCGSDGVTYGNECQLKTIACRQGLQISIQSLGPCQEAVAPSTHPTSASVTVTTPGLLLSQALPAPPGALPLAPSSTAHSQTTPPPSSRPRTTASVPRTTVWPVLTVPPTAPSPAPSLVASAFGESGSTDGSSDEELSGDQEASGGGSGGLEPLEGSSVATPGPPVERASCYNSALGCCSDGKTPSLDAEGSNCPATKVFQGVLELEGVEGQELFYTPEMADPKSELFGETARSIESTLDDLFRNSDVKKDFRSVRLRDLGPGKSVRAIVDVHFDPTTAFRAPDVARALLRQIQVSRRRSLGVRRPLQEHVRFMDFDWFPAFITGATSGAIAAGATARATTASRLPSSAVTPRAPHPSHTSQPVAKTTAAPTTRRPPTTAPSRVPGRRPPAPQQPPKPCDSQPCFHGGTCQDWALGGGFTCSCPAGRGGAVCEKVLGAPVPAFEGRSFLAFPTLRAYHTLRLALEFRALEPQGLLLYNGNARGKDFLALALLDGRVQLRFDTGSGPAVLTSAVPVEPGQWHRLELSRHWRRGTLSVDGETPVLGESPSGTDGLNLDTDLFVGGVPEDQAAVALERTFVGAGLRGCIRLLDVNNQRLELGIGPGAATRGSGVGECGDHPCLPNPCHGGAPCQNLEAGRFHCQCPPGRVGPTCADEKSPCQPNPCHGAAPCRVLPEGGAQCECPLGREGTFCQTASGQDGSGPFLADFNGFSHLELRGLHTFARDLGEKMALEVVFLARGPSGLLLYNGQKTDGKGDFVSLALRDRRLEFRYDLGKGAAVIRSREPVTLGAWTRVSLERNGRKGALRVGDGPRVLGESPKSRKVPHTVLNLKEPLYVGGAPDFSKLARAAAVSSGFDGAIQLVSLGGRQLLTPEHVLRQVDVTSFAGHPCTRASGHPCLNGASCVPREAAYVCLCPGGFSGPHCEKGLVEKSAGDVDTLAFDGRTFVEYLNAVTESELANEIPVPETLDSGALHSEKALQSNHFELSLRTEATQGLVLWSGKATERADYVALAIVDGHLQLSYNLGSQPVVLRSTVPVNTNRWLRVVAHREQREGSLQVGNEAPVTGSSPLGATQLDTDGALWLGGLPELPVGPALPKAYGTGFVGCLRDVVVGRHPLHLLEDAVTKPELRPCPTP
UniProt P27144: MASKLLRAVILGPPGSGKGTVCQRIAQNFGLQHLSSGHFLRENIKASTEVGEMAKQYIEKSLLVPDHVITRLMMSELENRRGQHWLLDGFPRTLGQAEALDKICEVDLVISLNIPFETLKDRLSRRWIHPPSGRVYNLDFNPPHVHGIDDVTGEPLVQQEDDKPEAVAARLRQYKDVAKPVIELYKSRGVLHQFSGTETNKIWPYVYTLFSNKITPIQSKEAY
UniProt Q9NX46: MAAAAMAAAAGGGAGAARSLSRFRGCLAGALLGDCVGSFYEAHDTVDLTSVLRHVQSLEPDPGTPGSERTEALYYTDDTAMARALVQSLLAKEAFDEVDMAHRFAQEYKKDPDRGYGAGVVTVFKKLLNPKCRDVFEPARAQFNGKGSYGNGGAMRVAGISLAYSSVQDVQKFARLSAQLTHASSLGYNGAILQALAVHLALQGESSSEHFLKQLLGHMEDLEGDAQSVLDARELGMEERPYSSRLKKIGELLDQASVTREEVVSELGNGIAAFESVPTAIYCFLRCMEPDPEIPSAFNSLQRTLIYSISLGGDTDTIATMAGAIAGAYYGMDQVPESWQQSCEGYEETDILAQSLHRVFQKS
UniProt O00170: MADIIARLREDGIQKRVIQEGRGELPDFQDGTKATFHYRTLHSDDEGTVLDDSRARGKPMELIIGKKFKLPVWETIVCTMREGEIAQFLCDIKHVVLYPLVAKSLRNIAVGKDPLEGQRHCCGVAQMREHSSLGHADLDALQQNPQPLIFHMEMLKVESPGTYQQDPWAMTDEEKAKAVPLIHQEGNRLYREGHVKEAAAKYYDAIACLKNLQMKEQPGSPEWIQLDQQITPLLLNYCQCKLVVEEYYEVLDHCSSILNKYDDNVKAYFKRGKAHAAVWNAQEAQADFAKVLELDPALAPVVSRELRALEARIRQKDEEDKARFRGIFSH
UniProt P12814, whole entry, looked up: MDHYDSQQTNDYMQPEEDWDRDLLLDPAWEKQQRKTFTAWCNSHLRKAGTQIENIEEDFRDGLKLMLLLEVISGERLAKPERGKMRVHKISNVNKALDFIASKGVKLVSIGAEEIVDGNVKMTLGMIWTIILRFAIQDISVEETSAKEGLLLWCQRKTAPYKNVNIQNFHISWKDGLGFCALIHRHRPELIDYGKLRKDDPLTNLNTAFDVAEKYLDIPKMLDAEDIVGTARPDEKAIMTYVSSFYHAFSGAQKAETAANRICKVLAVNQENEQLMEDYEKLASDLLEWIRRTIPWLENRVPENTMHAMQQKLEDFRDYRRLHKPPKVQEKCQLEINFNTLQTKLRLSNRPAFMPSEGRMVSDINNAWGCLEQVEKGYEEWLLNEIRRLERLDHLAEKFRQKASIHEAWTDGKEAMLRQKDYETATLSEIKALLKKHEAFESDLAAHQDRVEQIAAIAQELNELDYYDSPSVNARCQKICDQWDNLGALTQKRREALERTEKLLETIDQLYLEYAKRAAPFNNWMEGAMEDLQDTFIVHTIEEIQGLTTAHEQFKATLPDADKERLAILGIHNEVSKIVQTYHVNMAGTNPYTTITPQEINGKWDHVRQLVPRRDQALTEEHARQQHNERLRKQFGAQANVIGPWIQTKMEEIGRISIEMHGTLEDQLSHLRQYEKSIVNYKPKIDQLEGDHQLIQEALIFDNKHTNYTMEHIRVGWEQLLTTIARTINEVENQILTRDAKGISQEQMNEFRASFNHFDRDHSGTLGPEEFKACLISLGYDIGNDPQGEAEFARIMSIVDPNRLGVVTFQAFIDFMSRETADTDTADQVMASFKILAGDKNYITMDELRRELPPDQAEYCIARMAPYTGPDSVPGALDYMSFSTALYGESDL

Columns and labels:
Test in all cases: log2 fold change, soluble protein after heating vs DMSO (PISA); higher = thermal stabilisation; K562 lysate, 10 uM; active = over 0.2 and 3.5 SD of the protein, either way, in both replicates (recomputed)
vemurafenib = compound: CCCS(=O)(=O)Nc1ccc(F)c(C(=O)c2c[nH]c3ncc(-c4ccc(Cl)cc4)cc23)c1F [vemurafenib]
How it was run: (§1)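 K562 pellets were dounce-homogenised in PBS pH 7.4 with 1 mM MgCl2, and the crude extract at 1 mg/mL protein was treated with 10 μM compound for 30 min. Aliquots were heated for 3 min across 48°C-58°C, pooled, and brought to 0.5% NP-40 at 4°C; soluble protein was the supernatant after 21,000xg for 90 min. Soluble protein was quantified by TMTpro 16plex LC-MS/MS with channel sums equalised, and reported as log2 fold change in thermal stability against DMSO controls, with values from duplicates.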

[1] = compound: CCCS(=O)(=O)Nc1ccc(F)c(C(=O)c2c[nH]c3ncc(Cl)cc23)c1F
How it was run: as §1

barasertib = compound: CCN(CCCOc1ccc2c(Nc3cc(CC(=O)Nc4cccc(F)c4)[nH]n3)ncnc2c1)CCOP(=O)(O)O [barasertib]
How it was run: as §1

[2] = compound: CC[C@@H]1C(=O)N(C)c2cnc(Nc3ccc(C(=O)NC4CCN(C)CC4)cc3OC)nc2N1C1CCCC1
How it was run: as §1

volasertib = compound: CC[C@@H]1C(=O)N(C)c2cnc(Nc3ccc(C(=O)N[C@H]4CC[C@H](N5CCN(CC6CC6)CC5)CC4)cc3OC)nc2N1C(C)C [volasertib]
How it was run: as §1

[3] = compound: CCn1c(C(=O)N(C2CC2)C2CC2)cc2c3c(ncn3C)c(Nc3cc(C)n(C)n3)nc21
How it was run: as §1

[4] = compound: CCn1cc(-c2ccnc3[nH]c(-c4cccc(CN(C)C)c4)cc23)c(-c2ccc(NC(=O)N(C)C)cc2)n1
How it was run: as §1

[5] = compound: CN1CCC(CNc2ccc3ncc(-c4cccc(OC(F)(F)F)c4)n3n2)CC1
How it was run: as §1

saracatinib = compound: CN1CCN(CCOc2cc(OC3CCOCC3)c3c(Nc4c(Cl)ccc5c4OCO5)ncnc3c2)CC1 [saracatinib]
How it was run: as §1

sotrastaurin = compound: CN1CCN(c2nc(C3=C(c4c[nH]c5ccccc45)C(=O)NC3=O)c3ccccc3n2)CC1 [sotrastaurin]
How it was run: as §1

alvocidib = compound: CN1CC[C@H](c2c(O)cc(O)c3c(=O)cc(-c4ccccc4Cl)oc23)[C@H](O)C1 [alvocidib]
How it was run: as §1

Tubastatin A = compound: CN1CCc2c(c3ccccc3n2Cc2ccc(C(=O)NO)cc2)C1 [Tubastatin A]
How it was run: as §1

[6] = compound: CNC(=O)C1=CC=CC=C1NC2=NC(=NC=C2Cl)NC3=C(C=C(C=C3)N4CCOCC4)OC
How it was run: as §1

defactinib = compound: CNC(=O)c1ccc(Nc2ncc(C(F)(F)F)c(NCc3nccnc3N(C)S(C)(=O)=O)n2)cc1 [defactinib]
How it was run: as §1

[7] = compound: CNc1nc(-c2ccc3c(N)n[nH]c3c2)cc(N2C[C@@H](C(=O)NC3CCCCC3)CC[C@H]2C)n1
How it was run: as §1

encorafenib = compound: COC(=O)N[C@@H](C)CNc1nccc(-c2cn(C(C)C)nc2-c2cc(Cl)cc(NS(C)(=O)=O)c2F)n1 [encorafenib]
How it was run: as §1

[8] = compound: COC(=O)[C@H](CCSC)NC(=O)C1=C(C=C(C=C1)NC[C@H](CS)N)C2=CC=CC=C2
How it was run: as §1

alisertib = compound: COc1cc(Nc2ncc3c(n2)-c2ccc(Cl)cc2C(c2c(F)cccc2OC)=NC3)ccc1C(=O)O [alisertib]
How it was run: as §1

[9] = compound: COc1cc2nc(-c3cc(F)ccc3O)nc(N[C@@H]3CNC[C@H]3C(C)(C)O)c2cc1OC
How it was run: as §1

gefitinib = compound: COc1cc2ncnc(Nc3ccc(F)c(Cl)c3)c2cc1OCCCN1CCOCC1 [gefitinib]
How it was run: as §1

| Target | log2 fold change (vemurafenib) | log2 fold change [1] | log2 fold change (barasertib) | log2 fold change [2] | log2 fold change (volasertib) | log2 fold change [3] | log2 fold change [4] | log2 fold change [5] | log2 fold change (saracatinib) | log2 fold change (sotrastaurin) | log2 fold change (alvocidib) | log2 fold change (Tubastatin A) | log2 fold change [6] | log2 fold change (defactinib) | log2 fold change [7] | log2 fold change (encorafenib) | log2 fold change [8] | log2 fold change (alisertib) | log2 fold change [9] | log2 fold change (gefitinib) |
| --- | --- | --- | --- | --- | --- | --- | --- | --- | --- | --- | --- | --- | --- | --- | --- | --- | --- | --- | --- | --- |
| ADPRH (UniProt P54922) | inactive: 0.198 | inactive: -0.033 | inactive: 0.041 | inactive: 0.062 | inactive: -0.023 | inactive: 0.05 | inactive: 0.057 | inactive: -0.013 | inactive: 0.022 | inactive: -0.062 | inactive: 0.006 | inactive: 0.031 | inactive: 0.003 | inactive: 0.09 | inactive: 0.031 | inactive: -0.156 | inactive: 0.04 | inactive: -0.163 | inactive: 0.062 | inactive: -0.002 |
| ACSS2 isoform 2 (UniProt Q9NR19) | inactive: -0.072 | inactive: -0.007 | inactive: -0.025 | inactive: -0.108 | inactive: -0.029 | inactive: 0.014 | inactive: -0.019 | inactive: -0.001 | inactive: 0.018 | inactive: 0.014 | inactive: 0.046 | inactive: -0.061 | inactive: 0.002 | inactive: 0.003 | inactive: -0.052 | inactive: -0.027 | inactive: 0.027 | inactive: -0.027 | inactive: 0.01 | inactive: 0.003 |
| AGRN (UniProt O00468) | inactive: 0.046 | inactive: 0.064 | inactive: -0.076 | inactive: -0.032 | inactive: 0.035 | inactive: 0.059 | inactive: -0.085 | inactive: 0.106 | inactive: 0.042 | inactive: 0.021 | inactive: -0.053 | inactive: -0.012 | inactive: 0.007 | inactive: -0.041 | inactive: -0.163 | inactive: -0.021 | inactive: 0.073 | inactive: -0.138 | inactive: -0.135 | inactive: -0.078 |
| AK4 (UniProt P27144) | inactive: -0.068 | inactive: 0.018 | inactive: 0.11 | inactive: -0.057 | inactive: -0.024 | inactive: 0.023 | inactive: -0.036 | inactive: -0.002 | inactive: -0.016 | inactive: 0.05 | inactive: 0.025 | inactive: 0.036 | inactive: -0.008 | inactive: 0.003 | inactive: 0.009 | inactive: 0.006 | inactive: -0.07 | inactive: 0.026 | inactive: -0.034 | inactive: -0.043 |
| ADPRHL2 (UniProt Q9NX46) | inactive: -0.024 | inactive: 0.002 | inactive: 0.036 | inactive: -0.02 | inactive: -0.076 | inactive: -0.007 | inactive: -0.064 | inactive: -0.079 | inactive: 0.006 | inactive: -0.02 | inactive: 0.005 | inactive: 0.071 | inactive: 0.025 | inactive: -0.016 | inactive: 0.05 | inactive: -0.051 | inactive: 0.017 | inactive: 0.046 | inactive: 0.005 | inactive: 0.005 |
| AIP (UniProt O00170) | inactive: -0.002 | inactive: 0.015 | inactive: -0.004 | inactive: 0.017 | inactive: -0.004 | inactive: -0.022 | active: 0.514 | inactive: -0.019 | inactive: -0.015 | inactive: 0.007 | inactive: 0.164 | inactive: 0.003 | inactive: 0.037 | inactive: 0.004 | inactive: 0.015 | inactive: -0.008 | inactive: 0.043 | inactive: -0.039 | inactive: -0.002 | inactive: -0.032 |
| ACTN1 isoform 3 (UniProt P12814) | inactive: -0.022 | inactive: -0.009 | inactive: -0.025 | inactive: -0.001 | inactive: 0.034 | inactive: -0.005 | inactive: 0.046 | inactive: 0.017 | inactive: -0.007 | inactive: -0.017 | inactive: -0.001 | inactive: 0.031 | inactive: 0.014 | inactive: -0.022 | inactive: 0.003 | inactive: -0.021 | inactive: -0.017 | inactive: -0.003 | inactive: 0.008 | inactive: -0.016 |
| AGO4 (UniProt Q9HCK5) | inactive: 0.033 | inactive: 0.003 | inactive: 0.04 | inactive: -0.003 | inactive: 0.017 | inactive: -0.003 | inactive: 0.036 | inactive: 0.041 | inactive: -0.011 | inactive: -0.021 | inactive: -0.013 | inactive: -0.003 | inactive: 0.003 | inactive: -0.027 | active: -0.214 | inactive: 0.025 | inactive: -0.092 | inactive: -0.008 | inactive: 0.037 | inactive: -0.015 |
